Test results: PubChem BioAssay AID540275 (National Center for Advancing Translational Sciences (NCATS), 2011)
Out of some 320,000 compounds screened, about 620 (0.19%) were called active. The inconclusive results got no clear call from the source; some entries with a clear call stand among them for comparison. Rule as the data show it: active = activation above about 80%; inconclusive = between about 30% and that limit; inactive = weaker than that.

By UniProt entry, the sequences of proteins in these tests, tags left out.
UniProt Q8NER1, whole entry, looked up: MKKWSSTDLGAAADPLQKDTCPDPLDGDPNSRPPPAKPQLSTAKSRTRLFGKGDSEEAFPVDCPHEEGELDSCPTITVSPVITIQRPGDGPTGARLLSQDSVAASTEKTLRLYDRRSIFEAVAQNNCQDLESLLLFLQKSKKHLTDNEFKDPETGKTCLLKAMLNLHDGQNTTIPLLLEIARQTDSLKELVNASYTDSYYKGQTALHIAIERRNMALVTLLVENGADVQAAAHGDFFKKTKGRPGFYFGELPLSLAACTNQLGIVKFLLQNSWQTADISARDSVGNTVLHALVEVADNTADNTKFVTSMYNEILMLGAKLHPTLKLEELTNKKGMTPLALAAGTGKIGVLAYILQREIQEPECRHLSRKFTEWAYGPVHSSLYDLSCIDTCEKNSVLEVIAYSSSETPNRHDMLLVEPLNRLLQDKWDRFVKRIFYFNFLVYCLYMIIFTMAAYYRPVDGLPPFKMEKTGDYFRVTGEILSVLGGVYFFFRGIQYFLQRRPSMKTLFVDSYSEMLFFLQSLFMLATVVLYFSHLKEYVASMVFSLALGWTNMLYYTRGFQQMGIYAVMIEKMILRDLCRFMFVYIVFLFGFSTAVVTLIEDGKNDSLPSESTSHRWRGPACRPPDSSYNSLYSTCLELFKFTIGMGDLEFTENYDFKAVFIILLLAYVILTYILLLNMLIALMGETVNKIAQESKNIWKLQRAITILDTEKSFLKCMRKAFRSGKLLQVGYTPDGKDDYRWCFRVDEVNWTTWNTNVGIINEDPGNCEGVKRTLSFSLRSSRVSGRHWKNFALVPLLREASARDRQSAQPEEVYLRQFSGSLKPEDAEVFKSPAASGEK

Each compound was assayed against Transient receptor potential cation channel subfamily V member 1 (Homo sapiens) (UniProt Q8NER1) (assay: HTS Assay for Compounds that Act as Agonists of the Vanilloid Receptor 1). Conditions: TRPV1-expressing cells, Fluo-8 calcium influx, agonist mode; at 8.33 µM, active compounds read high.
Method in brief: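 Cells expressing TRPV1 were dye-loaded with Fluo-8 and read kinetically: 10 s baseline, 3 min after compound (agonist portion), then 2 min after EC20 capsaicin (allosteric enhancer portion). Calcium-bound dye fluorescence at 480/520 nm.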
Also: 0% is about no effect.

SMILES	activation
COc1ccc(CCNC(=O)C(=O)NCC2OCCN2S(=O)(=O)c2cc(F)ccc2F)cc1 (stereo unspecified)	inactive: 2.6%
CCC(C)C(NC(=O)C1CCC(C)CC1)C(=O)Nc1cc(OC)ccc1OC (stereo unspecified)	inconclusive: 35.4%
Cc1cc(Nc2ccc(Br)cc2)nc(-c2ccccc2O)n1	inactive: -0.0871%
Cc1c(Cl)cccc1NC(=S)NC1CCCC1	inconclusive: 53.7%
CCC(C)c1ccc(NC(=O)N2CCOCC2)cc1 (stereo unspecified)	active: 92.6%
Cc1cc(C(=O)COC(=O)c2ccccc2O)c(C)n1CC1CCCO1 (stereo unspecified)	inconclusive: 31.2%
CCc1ccc(OCCCC(=O)NCc2ccccc2)cc1	active: 83.4%
O=[N+]([O-])c1ccc(N(c2ccccc2)c2ccccc2)cc1	inactive: -0.634%
Cc1ccc(SCC(=O)Nc2ccc(N3CCN(C)CC3)c(F)c2)cc1	inactive: 14.8%
CSc1ccc(/C=N/NC(=O)c2cc(O)cc(O)c2)cc1	inactive: -2.1%
CCOC(=O)c1sc(NC(=O)c2ccco2)nc1-c1ccccc1	inconclusive: 50.9%
CCc1ccc(NC(=O)C2(c3ccccc3)CC2(Cl)Cl)cc1 (stereo unspecified)	inactive: 13.1%
CC(NC(=S)Nc1ccccc1Cl)C(c1cccs1)N1CCCC1 (stereo unspecified)	inconclusive: 39.5%
CNc1c(NC(=O)c2ccc3c(c2)OCO3)c(=O)oc2ccccc12	inactive: 3.17%
CC1CCc2c(sc(/N=C/c3ccco3)c2C(N)=O)C1 (stereo unspecified)	inactive: 4.37%
CN1CCN(c2ccc(NC(=O)c3cc4ccccc4o3)cc2)CC1	inactive: 13.6%
CCOC(=O)c1cccc(NC(=O)c2ccc(N(C)C)cc2)c1	inconclusive: 35.7%
C[C@H](NC(=O)c1nc[nH]c1C(=O)N[C@@H](C)c1ccccc1)C(=O)OC(C)(C)C	inconclusive: 35.3%
COc1ccc(N(C)S(=O)(=O)c2cccc(C(=O)OCC(=O)NCc3ccccc3OC)c2)cc1	inconclusive: 36.2%
O=C(CSc1ccccn1)N/N=C/c1ccccc1[N+](=O)[O-]	inactive: 3.5%
COc1cc(N=Nc2ccc3ccccc3c2)ccc1O	inactive: 4.25%
O=c1c2c(nc3cc(-c4ccc(F)cc4)[nH]n13)CCCC2	inactive: -4.03%
C=CCn1c(SCCOc2ccc(OC)cc2)nnc1C(C)NC(=O)Cc1ccc(OC)cc1 (stereo unspecified)	inactive: -5.8%
O=C(CCn1c(=O)oc2ccccc21)N(Cc1ccccc1)c1ccccc1	inconclusive: 31.7%
COc1ccc(NS(=O)(=O)c2ccc(NC(=O)c3ccc(N(C)S(C)(=O)=O)cc3)cc2)c(OC)c1	inactive: 10.7%
CCOC(=O)CN(C(=O)COC(=O)C1(c2ccccc2)CC1)c1ccc(F)cc1	inconclusive: 44.8%

Ordered by count of non-hydrogen atoms (rising): part of the list above.
SMILES	activation
Cc1c(Cl)cccc1NC(=S)NC1CCCC1	inconclusive: 53.7%
CC1CCc2c(sc(/N=C/c3ccco3)c2C(N)=O)C1 (stereo unspecified)	inactive: 4.37%
CSc1ccc(/C=N/NC(=O)c2cc(O)cc(O)c2)cc1	inactive: -2.1%
Cc1cc(Nc2ccc(Br)cc2)nc(-c2ccccc2O)n1	inactive: -0.0871%
CC(NC(=S)Nc1ccccc1Cl)C(c1cccs1)N1CCCC1 (stereo unspecified)	inconclusive: 39.5%
CNc1c(NC(=O)c2ccc3c(c2)OCO3)c(=O)oc2ccccc12	inactive: 3.17%
Cc1ccc(SCC(=O)Nc2ccc(N3CCN(C)CC3)c(F)c2)cc1	inactive: 14.8%
